Construct, isoform or probe ends are uncertain for at least one entry. No signal at the amounts used counts as a negative.
Columns and labels:
GST moiety alone = GST moiety alone (UniProt P08515); test: EMSA; conditions: no specific complex; nonspecific lysate complex seen; protein translated in vitro; protein details: GST from pXen1 vector without insert; label: 32P
[1] = biological target: GST-hCPEB1 (Homo sapiens) (UniProt Q9BZB8); test: EMSA; conditions: protein translated in vitro, label: 32P
[2] = reticulocyte lysate, variant of human Mos 3' UTR wild-type

Sequences of proteins named here, by UniProt entry; tags and fusion partners are left off. A change or cut given only in a name is not applied to a line headed by its entry.
UniProt P08515, whole entry: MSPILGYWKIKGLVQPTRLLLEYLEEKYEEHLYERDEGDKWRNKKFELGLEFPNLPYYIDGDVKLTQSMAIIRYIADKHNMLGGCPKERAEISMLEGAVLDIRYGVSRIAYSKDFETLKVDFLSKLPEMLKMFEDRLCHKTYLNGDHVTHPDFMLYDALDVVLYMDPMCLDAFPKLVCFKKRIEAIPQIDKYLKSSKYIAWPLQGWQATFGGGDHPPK
UniProt Q9BZB8: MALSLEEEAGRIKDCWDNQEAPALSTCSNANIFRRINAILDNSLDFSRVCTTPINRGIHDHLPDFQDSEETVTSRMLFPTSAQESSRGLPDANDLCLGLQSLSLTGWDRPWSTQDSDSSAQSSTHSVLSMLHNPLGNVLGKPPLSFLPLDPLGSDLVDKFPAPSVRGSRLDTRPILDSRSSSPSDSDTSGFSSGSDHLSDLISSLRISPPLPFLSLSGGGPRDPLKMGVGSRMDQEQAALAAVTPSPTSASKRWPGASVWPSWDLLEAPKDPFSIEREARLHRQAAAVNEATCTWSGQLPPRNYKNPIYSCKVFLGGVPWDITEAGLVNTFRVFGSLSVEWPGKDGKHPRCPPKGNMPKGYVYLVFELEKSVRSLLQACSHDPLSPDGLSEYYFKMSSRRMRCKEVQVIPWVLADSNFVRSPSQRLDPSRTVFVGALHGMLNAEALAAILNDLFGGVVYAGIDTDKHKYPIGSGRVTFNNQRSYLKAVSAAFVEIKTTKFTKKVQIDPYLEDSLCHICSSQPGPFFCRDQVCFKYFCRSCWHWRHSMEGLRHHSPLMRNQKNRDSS

Sequence: CUGAAAACCUGGUCAAGAUAAGUUUUUGUCUGAUUCUAUUUCUUUUUAAAGGAAGUGGAGAUGUCGAAGAAAACAUAUUUGUAGGAUGGAGUUUUAGAAAAUAAAGUUACUAAAAACUC [human Mos 3' UTR wild-type]
- binding result (GST moiety alone): no binding
- binding result [1]: binds

Sequence: UGUUUGGGAAGAGUUUGGGAAAAUAAAGUU [human Mos 3' UTR mutant 3 (U5A and U4A disrupted)]
- binding result [1, 2]: no binding

Sequence: UGUUUGGGAAGAGUUUUAGAAAAUAAAGUU [human Mos 3' UTR mutant 2 (U5A disrupted)]
- binding result ([1]; 50-fold excess also had little effect as competitor, variant of human Mos 3' UTR wild-type): no binding

Sequence: UGUUUUUAAAGAGUUUGGGAAAAUAAAGUU [human Mos 3' UTR mutant 1 (U4A disrupted)]
- binding result [1, 2]: binds
